Values quoted from earlier work in patent publication US11819476B2, “Rapamycin analogs and uses thereof” (Janssen Pharmaceutica NV, priority 2019, dated 2023).
For at least one compound, name, drawing or mass did not settle the structure.

Tested on: Lmna−/− mice
Conditions: short-term treatment; cited from earlier work

## CO[C@H]1C[C@@H]2CC[C@@H](C)[C@@](O)(O2)C(=O)C(=O)N2CCCC[C@H]2C(=O)O[C@H]([C@H](C)C[C@@H]2CC[C@@H](O)[C@H](OC)C2)CC(=O)[C@H](C)/C=C(\C)[C@@H](O)[C@@H](OC)C(=O)[C@H](C)C[C@H](C)/C=C/C=C/C=C/1C [rapamycin]
  enhanced survival: 50%
